Experimental data: PubChem BioAssay AID1259254 (NCATS, 2017)
Screen: 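Finding genes that stop cells copying their DNA twice in one cycle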 (primary screen). Cells: human HCT116 colorectal cancer cells. Reagent: single siRNA against human genes. Time to read-out: 3 days. Detection: 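Imaged Hoechst DNA stain sorts each cell into a cycle phase by DNA amount; per plate, G2 fraction set to 0% for non-targeting and 100% for GMNN siRNA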. Scale: G2 robust z-score: higher = more G2 cells, more excess DNA replication. Active means: 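Active siRNAs have a G2 robust z of 5 or more median absolute deviations over the median, which in these data means about 38% or higher of GMNN control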.
The deposit covers about 59,000 reagents; shown is a part drawn at random. About 1,550 of them (2.6%) count as active. 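G2 share is only a proxy for re-replication; each gene was hit by three separate siRNAs, and active genes were retested.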 A number with no mark means an inactive call. Not all columns of the deposit are shown. Not stated in the record: the amount of reagent.

G2 robust z-score | gene | PubChem SID
-0.846 | SRY (sex determining region Y) | SID160717361
-0.439 | SRY (sex determining region Y) | SID160717363
1.31 | SRY (sex determining region Y) | SID160717364
-0.431 | NCOR1P1 (NCOR1 pseudogene 1) | SID160732565
-0.131 | NCOR1P1 (NCOR1 pseudogene 1) | SID160758882
1.78 | NCOR1P1 (NCOR1 pseudogene 1) | SID160758883
1.73 | CBX3P6 (CBX3 pseudogene 6) | SID160733782
-0.594 | CBX3P6 (CBX3 pseudogene 6) | SID160768695
-0.875 | CBX3P6 (CBX3 pseudogene 6) | SID160768696
0.724 | KLHL2 (kelch like family member 2) | SID160730343
0.265 | KLHL2 (kelch like family member 2) | SID160730344
-0.0923 | KLHL2 (kelch like family member 2) | SID160730345
-0.8 | SNX24 (sorting nexin 24) | SID160738888
0.723 | SNX24 (sorting nexin 24) | SID160738889
-1.05 | SNX24 (sorting nexin 24) | SID160738890
1.53 | OR4F3 (olfactory receptor family 4 subfamily F member 3) | SID160738138
1.09 | OR4F3 (olfactory receptor family 4 subfamily F member 3) | SID160738139
-0.23 | OR4F3 (olfactory receptor family 4 subfamily F member 3) | SID160738140
-0.476 | COX7A2L (cytochrome c oxidase subunit 7A2 like) | SID160721631
-0.0707 | COX7A2L (cytochrome c oxidase subunit 7A2 like) | SID160721632
-0.206 | COX7A2L (cytochrome c oxidase subunit 7A2 like) | SID160721633
-0.451 | CIBAR2 (CBY1 interacting BAR domain containing 2) | SID160764156
-0.728 | CIBAR2 (CBY1 interacting BAR domain containing 2) | SID160764157
1.51 | CIBAR2 (CBY1 interacting BAR domain containing 2) | SID160764159
-0.477 | HERC4 (HECT and RLD domain containing E3 ubiquitin protein ligase 4) | SID160737605
-0.304 | HERC4 (HECT and RLD domain containing E3 ubiquitin protein ligase 4) | SID160737606
-0.973 | HERC4 (HECT and RLD domain containing E3 ubiquitin protein ligase 4) | SID160737607
2.8 | VPS11 (VPS11 core subunit of CORVET and HOPS complexes) | SID160744451
0.211 | VPS11 (VPS11 core subunit of CORVET and HOPS complexes) | SID160744452
0.863 | VPS11 (VPS11 core subunit of CORVET and HOPS complexes) | SID160744453
0.05 | STX17 (syntaxin 17) | SID160731484
0.64 | STX17 (syntaxin 17) | SID160742748
3.92 | STX17 (syntaxin 17) | SID160742749
-0.706 | PABPC1L2B (poly(A) binding protein cytoplasmic 1 like 2B) | SID160769755
-0.57 | PABPC1L2B (poly(A) binding protein cytoplasmic 1 like 2B) | SID160769756
-0.371 | PABPC1L2B (poly(A) binding protein cytoplasmic 1 like 2B) | SID160769757
-1.79 | APRT (adenine phosphoribosyltransferase) | SID160719008
1.51 | APRT (adenine phosphoribosyltransferase) | SID160719019
-1.35 | APRT (adenine phosphoribosyltransferase) | SID160731128
-0.994 | CABLES1 (Cdk5 and Abl enzyme substrate 1) | SID160754099
-0.386 | CABLES1 (Cdk5 and Abl enzyme substrate 1) | SID160754100
0.197 | CABLES1 (Cdk5 and Abl enzyme substrate 1) | SID160754101
0.0209 | PRICKLE3 (prickle planar cell polarity protein 3) | SID160731206
-0.834 | PRICKLE3 (prickle planar cell polarity protein 3) | SID160776672
-0.369 | PRICKLE3 (prickle planar cell polarity protein 3) | SID160776673
1.71 | NENF (neudesin neurotrophic factor) | SID160739341
4.28 | NENF (neudesin neurotrophic factor) | SID160739342
0.547 | NENF (neudesin neurotrophic factor) | SID160739343
-0.107 | PDX1 (pancreatic and duodenal homeobox 1) | SID160731143
-0.502 | PDX1 (pancreatic and duodenal homeobox 1) | SID160775902
1.23 | PDX1 (pancreatic and duodenal homeobox 1) | SID160775903
-0.378 | PPP2R5A (protein phosphatase 2 regulatory subunit B'alpha) | SID160714809
0.332 | PPP2R5A (protein phosphatase 2 regulatory subunit B'alpha) | SID160714810
0.00118 | PPP2R5A (protein phosphatase 2 regulatory subunit B'alpha) | SID160714811
-0.716 | TMEM215 (transmembrane protein 215) | SID160733347
4.52 | TMEM215 (transmembrane protein 215) | SID160767309
-0.18 | TMEM215 (transmembrane protein 215) | SID160767310
-1.28 | HOXD8 (homeobox D8) | SID160775257
0.302 | HOXD8 (homeobox D8) | SID160775258
-0.713 | HOXD8 (homeobox D8) | SID160775259
-0.323 | PITPNB (phosphatidylinositol transfer protein beta) | SID160736843
0.708 | PITPNB (phosphatidylinositol transfer protein beta) | SID160736844
-0.218 | PITPNB (phosphatidylinositol transfer protein beta) | SID160736845
-0.996 | DNMT1 (DNA methyltransferase 1) | SID160755567
-0.413 | DNMT1 (DNA methyltransferase 1) | SID160755578
-0.2 | DNMT1 (DNA methyltransferase 1) | SID160755589
-0.914 | WDR19 (WD repeat domain 19) | SID160746683
0.562 | WDR19 (WD repeat domain 19) | SID160746684
1.16 | WDR19 (WD repeat domain 19) | SID160746685
1.88 | ATF7IP (activating transcription factor 7 interacting protein) | SID160744199
0.394 | ATF7IP (activating transcription factor 7 interacting protein) | SID160744200
-0.00949 | ATF7IP (activating transcription factor 7 interacting protein) | SID160744201
-1.11 | RITA1 (RBPJ interacting and tubulin associated 1) | SID160752977
4.26 | RITA1 (RBPJ interacting and tubulin associated 1) | SID160752978
0.309 | RITA1 (RBPJ interacting and tubulin associated 1) | SID160752979
-0.923 | METTL22 (methyltransferase 22, Kin17 lysine) | SID160748632
-0.318 | METTL22 (methyltransferase 22, Kin17 lysine) | SID160748633
-0.0151 | METTL22 (methyltransferase 22, Kin17 lysine) | SID160748634
-0.993 | ZDHHC15 (zDHHC palmitoyltransferase 15) | SID160759705
1.38 | ZDHHC15 (zDHHC palmitoyltransferase 15) | SID160759706
-0.376 | ZDHHC15 (zDHHC palmitoyltransferase 15) | SID160759707
0.0874 | GPR78 (G protein-coupled receptor 78) | SID160724364
-0.357 | GPR78 (G protein-coupled receptor 78) | SID160724365
-0.432 | GPR78 (G protein-coupled receptor 78) | SID160724366
-0.781 | STX8 (syntaxin 8) | SID160722323
-1.27 | STX8 (syntaxin 8) | SID160722324
2.84 | STX8 (syntaxin 8) | SID160722325
